From the supplement of paper PMC4371806
The full ranking holds about 1,600 compounds; the median of “plate-normalized OD600 growth (mean of duplicates)” is about 0.31, and the lowest 2% start at about 0.23. The list shows a part of the results.

Test system: Escherichia coli BW25113
Assay: plate-normalized OD600 growth (mean of duplicates) (OD600 (normalized)); higher = more growth (less inhibition)
Settings: 10 µM
Procedure: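 E. coli BW25113 in LB (100 µl, 96-well, no shaking) was exposed to 10 µM of each compound (here the ChemBridge subset of a ~30,000-member library) and grown at 37°C for 24 h or 15°C for 48 h, in duplicate. Growth was read as OD600 and the duplicate ODs were normalized across screening plates to correct plate-to-plate variation.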

| Compound | plate-normalized OD600 growth (temperature: 15°C, 48 h) | plate-normalized OD600 growth (temperature: 37°C, 24 h) |
| --- | --- | --- |
| COc1ccc(NS(=O)(=O)c2ccc(F)cc2)cc1 | 0.228 | 0.65 |
| Cn1ncc(Oc2ccc([N+](=O)[O-])cc2)c(Cl)c1=O | 0.251 | 0.636 |
| Cc1ccccc1CN(C)C1CCN(C)CC1 | 0.256 | 0.628 |
| O=C(CCCc1ccccc1)Nc1ccc(C(=O)O)cc1 | 0.244 | 0.597 |
| Nc1nc(SCC(=O)N2CCCCC2)nc2sc3c(c12)CCCC3 | 0.247 | 0.613 |
| CCOc1cc(CN(C)CCN(C)C)ccc1O | 0.244 | 0.643 |
| COc1cc2c(cc1OC)C(c1cccc([N+](=O)[O-])c1)NC(=O)C2 (centres undefined) | 0.234 | 0.608 |
| CCSc1sc(SC#N)cc1SC#N | 0.207 | 0.614 |
| COc1ccc(C(C)=O)cc1Cc1c(O)nc(SC)[nH]c1=O | 0.247 | 0.629 |
| Cc1cc(C)n(-c2nc(-c3ccc(F)cc3)cs2)n1 | 0.254 | 0.625 |
| N#CCCN(CC(=O)O)S(=O)(=O)c1ccccc1 | 0.247 | 0.608 |
| COc1ccccc1OCC(=O)NN | 0.252 | 0.619 |
| Cc1ccc2nc(/C(C#N)=C\c3ccc([N+](=O)[O-])o3)[nH]c2c1 | 0.243 | 0.603 |
| COc1ccc(C(=O)Nc2ccc(S(=O)(=O)Nc3nc(C)cc(C)n3)cc2)c(OC)c1 | 0.251 | 0.616 |
| O=C(O)CCSc1nc2ccc(Br)cc2[nH]1 | 0.269 | 0.651 |
| CC1(C)CC(=O)C2=C(C1)Nc1ccccc1NC2c1ccc([N+](=O)[O-])s1 (centres undefined) | 0.231 | 0.604 |
| c1ccc(CCN2CCC(N3CCOCC3)CC2)cc1 | 0.239 | 0.618 |
| CCc1c(O)nc(SCC(=O)N(CC)CC)n(C2CCCCC2)c1=O | 0.23 | 0.601 |
| CCN(CC)C(=O)C1CCCN(Cc2cccc(C)c2)C1 (centres undefined) | 0.25 | 0.609 |
| Cc1ccc(C(=O)O)cc1NC(=O)c1cccs1 | 0.239 | 0.612 |
| CC(=O)Nc1ccc(S(=O)(=O)N2CCCC(CO)C2)cc1 (centres undefined) | 0.29 | 0.63 |
| Cc1ccc(CN2CCCC(O)C2)c(C)c1 (centres undefined) | 0.241 | 0.635 |

| Compound | plate-normalized OD600 growth (temperature: 15°C, 48 h) | plate-normalized OD600 growth (temperature: 37°C, 24 h) |
| --- | --- | --- |
| Cc1cc(C)c(S(=O)(=O)N2CCOCC2)c(C)c1 | 0.259 | 0.63 |
| CC(=O)c1cc(F)c(N2CCN(c3ccc([N+](=O)[O-])cc3F)CC2)cc1C | 0.263 | 0.632 |
| N#CC1=C(Nc2ccc(Br)cc2)CCC1 | 0.248 | 0.604 |
| CN(C)C(N)=NC(N)=Nc1ccccc1 | 0.25 | 0.625 |
| Cc1cc(C)n(C(=O)c2ccccc2Br)n1 | 0.226 | 0.655 |
| O=C(O)c1ccc(Nc2ncnc3ccccc23)cc1 | 0.244 | 0.64 |
| CCCN(CCO)Cc1ccc(F)c(Br)c1 | 0.268 | 0.623 |
| O=c1cc[nH]c2ccc([N+](=O)[O-])cc12 | 0.259 | 0.616 |
| O=S(=O)(c1cc(Cl)ccc1Cl)N1CCN(c2ccccc2)CC1 | 0.25 | 0.595 |
| COc1ccccc1N1C(=O)CC(N2CCN(c3ccc([N+](=O)[O-])cc3)CC2)C1=O (centres undefined) | 0.282 | 0.637 |
| CC(C)Oc1ccccc1C1CC(=O)NC1=O (centres undefined) | 0.253 | 0.626 |
| Cc1cccc(NC(=O)c2cccc(I)c2)c1C | 0.26 | 0.63 |
| O=C(O)c1ccc(NS(=O)(=O)c2cccc(C(=O)Nc3ccccc3[N+](=O)[O-])c2)cc1 | 0.246 | 0.587 |
| N#CC1=C(N)Oc2c(c(=O)[nH]c3ccccc23)C1c1cc(Br)cs1 (centres undefined) | 0.249 | 0.609 |
| COc1ccc(OCC(O)CN2CCN(c3ccccc3)CC2)cc1 (centres undefined) | 0.253 | 0.612 |
| Cc1nc(=O)c(-c2ccccc2)c(C)n1-c1ccc(C(=O)O)cc1 | 0.28 | 0.639 |
| O=C1c2ccccc2-c2c1cccc2C(=O)N(CCO)CCO | 0.241 | 0.627 |
| N#CC1=C(N)N2C(=C(C#N)C1c1cccs1)Sc1ccccc12 (centres undefined) | 0.24 | 0.614 |
| CN(Cc1ccccc1)Cc1ccccn1 | 0.242 | 0.622 |
| NS(=O)(=O)c1ccc(NC(=O)c2ccccc2Cl)cc1 | 0.24 | 0.604 |
| CCN(CCN(C)C)C1CCCCCC1 | 0.26 | 0.618 |
| O=C(c1cccnc1)N1CCN(C(=O)c2ccco2)CC1 | 0.24 | 0.631 |

| Compound | plate-normalized OD600 growth (temperature: 15°C, 48 h) | plate-normalized OD600 growth (temperature: 37°C, 24 h) |
| --- | --- | --- |
| COc1ccccc1-n1c(SCC(=O)c2ccccc2)nc(O)cc1=O | 0.263 | 0.631 |
| CC(C)NCC(=O)NC12CC3CC(CC(C3)C1)C2 | 0.266 | 0.656 |
| Cc1ccc(C)c(C2=NNC(=O)CC2)c1 | 0.248 | 0.637 |
| CCOc1ccc(NC(=O)c2cc(C)cc(C)c2)c([N+](=O)[O-])c1 | 0.25 | 0.6 |
| COc1ccc(C(=O)O)cc1S(=O)(=O)N1CCOCC1 | 0.263 | 0.623 |
| CC1CCc2c(sc(NC(=O)c3c(F)c(F)c(F)c(F)c3F)c2C#N)C1 (centres undefined) | 0.25 | 0.616 |
| O=[N+]([O-])c1ccc(Nc2c[nH]c3ccccc23)cc1 | 0.261 | 0.615 |
| CCc1ccccc1NC(=O)c1cccc(Br)c1 | 0.244 | 0.619 |
| Cc1cccc(CN2CCN(c3ccccn3)CC2)c1 | 0.241 | 0.627 |
| Cc1nc2c(=O)[nH]c3ccccc3c2o1 | 0.249 | 0.633 |
| OCCN(Cc1ccccc1)Cc1ccccc1F | 0.232 | 0.589 |
| Nc1ccc(Br)cc1C(NCC(=O)O)c1ccccc1 (centres undefined) | 0.249 | 0.615 |
| CN1CCCC1CCNC1CC2CCC1C2 (centres undefined) | 0.299 | 0.637 |
| COc1ccc(C=C(C#N)c2nc3ccccc3[nH]2)cc1 | 0.263 | 0.626 |
| Cn1ccnc1SCC(=O)c1ccc(F)cc1 | 0.265 | 0.622 |
| NC(=O)C1CCN(Cc2c(F)cccc2Cl)CC1 | 0.278 | 0.66 |
| O=C1CC(N2CCCCCC2)C(=O)N1c1ccccc1 (centres undefined) | 0.252 | 0.62 |
| [O-][n+]1onc2c(-c3ccccc3)nnc(-c3ccccc3)c21 | 0.254 | 0.616 |
| Cn1c(C=O)nc2cc([N+](=O)[O-])ccc21 | 0.241 | 0.625 |
| O=C(O)c1cc(NC(=O)C(c2ccccc2)c2ccccc2)cc(C(=O)O)c1 | 0.254 | 0.624 |
| CCc1nc2c([nH]1)c(=O)n(C)c(=O)n2C | 0.244 | 0.597 |
| CSc1nnnn1-c1ccccc1 | 0.245 | 0.606 |

| Compound | plate-normalized OD600 growth (temperature: 15°C, 48 h) | plate-normalized OD600 growth (temperature: 37°C, 24 h) |
| --- | --- | --- |
| CCCOc1ccc(N2C(=O)CC(N3CCN(c4ccccn4)CC3)C2=O)cc1 (centres undefined) | 0.247 | 0.623 |
| COc1ccc(OCCCCN2CCCCC2)cc1 | 0.249 | 0.614 |
| NC1COS(=O)OC1c1ccc([N+](=O)[O-])cc1 (centres undefined) | 0.254 | 0.607 |
| N#CC1=C(N)OC2=C(C(=O)CCC2)C1c1ccccc1[N+](=O)[O-] (centres undefined) | 0.263 | 0.624 |
| O=C(O)c1ccc(S(=O)(=O)c2ccc(O)cc2)cc1 | 0.247 | 0.592 |
| CC(NC(=O)Nc1cccc(Cl)c1)c1ccccc1 (centres undefined) | 0.244 | 0.635 |
| O=S(=O)(c1ccccc1)c1cccc(S(=O)(=O)N2CCOCC2)c1 | 0.227 | 0.595 |
| N#CSC(CS(=O)(=O)c1cccc([N+](=O)[O-])c1)c1ccccc1 (centres undefined) | 0.268 | 0.652 |
| CN(C)c1ccc(C2CC(=O)NC3=C2C(=O)CC(C)(C)C3)cc1 (centres undefined) | 0.242 | 0.65 |
| Nc1ccc(-c2nc3cc(N)ccc3s2)c(O)c1 | 0.247 | 0.6 |
| Cc1cc(C)n2nc(C)c(-c3ccc(Cl)cc3)c2n1 | 0.278 | 0.662 |
| O=c1[nH]c(SC2C=CCCC2)nc2sc3c(c12)CCCC3 (centres undefined) | 0.248 | 0.614 |
| O=C(CSc1ccccn1)c1ccc(Br)cc1 | 0.233 | 0.629 |
| O=C(O)c1ccc(S(=O)(=O)c2ccc3c(c2)C(=O)N(c2nccs2)C3=O)cc1 | 0.241 | 0.624 |
| Cc1cc(C)n(-c2cccc3cccnc23)n1 | 0.258 | 0.612 |
| O=S(=O)(NCC1(c2ccccc2)CCCC1)c1ccccc1 | 0.238 | 0.6 |
| O=C(Nc1ccc(Cl)cc1)c1ccccc1Br | 0.264 | 0.633 |
| COc1cccc(OC)c1C(=O)Nc1cccc(C)c1 | 0.275 | 0.647 |
| Cc1ccc(C(NC(N)=O)c2ccccc2C)cc1 (centres undefined) | 0.244 | 0.605 |
| O=C1CC(C2CCCO2)C(=O)N1c1ccc(Cl)cc1 (centres undefined) | 0.243 | 0.618 |
| COc1ccc(CCNC(=O)CSc2nc(N)c3c4c(sc3n2)CCCC4)cc1 | 0.234 | 0.595 |
| CN1CCN(NC(=O)c2ccc(Cl)cc2[N+](=O)[O-])CC1 | 0.24 | 0.608 |

Four entries from above in a different format:
CN(C)c1ccc(C2CC(=O)NC3=C2C(=O)CC(C)(C)C3)cc1 (centres undefined)
  plate-normalized OD600 growth (temperature: 15°C, 48 h): 0.242
  plate-normalized OD600 growth (temperature: 37°C, 24 h): 0.65
Nc1ccc(-c2nc3cc(N)ccc3s2)c(O)c1
  plate-normalized OD600 growth (temperature: 15°C, 48 h): 0.247
  plate-normalized OD600 growth (temperature: 37°C, 24 h): 0.6
Cc1cc(C)n2nc(C)c(-c3ccc(Cl)cc3)c2n1
  plate-normalized OD600 growth (temperature: 15°C, 48 h): 0.278
  plate-normalized OD600 growth (temperature: 37°C, 24 h): 0.662
O=c1[nH]c(SC2C=CCCC2)nc2sc3c(c12)CCCC3 (centres undefined)
  plate-normalized OD600 growth (temperature: 15°C, 48 h): 0.248
  plate-normalized OD600 growth (temperature: 37°C, 24 h): 0.614

Next compounds:

| Compound | plate-normalized OD600 growth (temperature: 15°C, 48 h) | plate-normalized OD600 growth (temperature: 37°C, 24 h) |
| --- | --- | --- |
| Cc1nn(-c2ccccc2)c(C)c1CC(=O)O | 0.237 | 0.617 |
| O=C(/C=C/c1ccc(-c2ccc(F)cc2)o1)c1cccs1 | 0.253 | 0.617 |
| O=C1NN=C(c2ccccc2O)C1[N+](=O)[O-] (centres undefined) | 0.254 | 0.613 |
| CCOc1ccccc1/C=C/C(=O)c1cccs1 | 0.245 | 0.608 |
| COc1ccc(CC(=O)N(Cc2ccccc2)Cc2ccccc2)cc1 | 0.229 | 0.62 |
| CCC(Cc1ccccc1)NC(=O)c1ccccc1 (centres undefined) | 0.267 | 0.624 |
| Cc1cc(OCC(=O)N(C)Cc2ccccc2)ccc1Cl | 0.242 | 0.612 |
| O=C(O)CC1Sc2ccccc2NC1=O (centres undefined) | 0.272 | 0.65 |
| O=c1c2ccccc2nc(CSc2nnnn2-c2ccccc2)n1-c1ccccc1 | 0.262 | 0.628 |
| N#CC1=C(N)N2C(=C(C#N)C1c1c(F)cccc1Cl)Sc1ccccc12 (centres undefined) | 0.27 | 0.622 |
| O=C(O)c1ccc(NCCCO)c([N+](=O)[O-])c1 | 0.257 | 0.613 |
| COc1ccccc1NC(=O)CCC(=O)O | 0.253 | 0.616 |
| O=Cc1ccc2ccc3ccc(C=O)nc3c2n1 | 0.24 | 0.608 |
| C=CCSc1nc(N)c(C#N)c(CC)c1C#N | 0.239 | 0.605 |
| O=c1[nH]nc(-c2ccccc2)c2cc3c(-c4ccccc4)n[nH]c(=O)c3cc12 | 0.243 | 0.601 |
| O=c1cc(-c2ccc(Cl)cc2)[nH][nH]c1=O | 0.277 | 0.636 |
| Cc1cc(C)n(C(=O)C(c2ccccc2)c2ccccc2)n1 | 0.237 | 0.61 |
| CCOc1c([N+](=O)[O-])cc2c(C)c(C(=O)N3CCN(C)CC3)oc2c1OCC | 0.241 | 0.617 |
| Cn1cc(/C=C/c2nc3ccccc3c(=O)[nH]2)c2ccccc21 | 0.248 | 0.604 |
